From the supplement of paper PMC3334620
Over roughly 33,000 sequences, “E-score (-0.5 to 0.5)” has its median near -0.0059; the highest 2% begin near 0.26. This is one part of the list.

target: T1, Cin5 (UniProt P40917); experiment: PBM E-score (8-mer binding enrichment) (E-score (-0.5 to 0.5)); higher = stronger / more preferred TF binding; details: protein concentration: 100 nM; construct: GST-full length
T1 sequence: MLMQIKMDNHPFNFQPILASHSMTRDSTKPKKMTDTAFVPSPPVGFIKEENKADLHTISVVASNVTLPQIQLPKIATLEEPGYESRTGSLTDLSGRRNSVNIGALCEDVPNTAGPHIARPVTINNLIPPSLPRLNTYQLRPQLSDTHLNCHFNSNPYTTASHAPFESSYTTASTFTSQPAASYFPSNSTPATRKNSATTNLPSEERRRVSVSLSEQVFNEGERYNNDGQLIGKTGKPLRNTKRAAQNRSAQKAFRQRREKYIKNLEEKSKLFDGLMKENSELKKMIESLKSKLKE
Procedure: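 Universal 'all 10-mer' protein binding microarrays (Agilent AMADID 015681) probed with GST-tagged S. cerevisiae TFs (full-length or DBD) made by in vitro transcription/translation (PURExpress), about 100-200 nM. Bound TF was detected with fluorescent anti-GST. Each ungapped 8-mer (which stands for itself and its reverse complement) is scored by the PBM enrichment score (E-score), a modified Wilcoxon-Mann-Whitney statistic from -0.5 to +0.5, computed with the Universal PBM Analysis Suite. Scale: above 0.35 generally sequence-specific binding.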

Sequence	PBM E-score
ACTCAGCT	0.0834
ATCTGCAA	-0.0484
CCGACTGC	-0.178
ACTCTCGC	-0.0658
ACTGCGGA	0.0415
ACCGCGCT	-0.03
GATCGGGC	-0.0615
CCACGAGC	-0.163
ACTTTTAA	0.0259
AGTTTCCC	-0.145
CGCGAAGA	0.0959
AGATATGG	0.26
AAAGCCAA	-0.0212
CCCTGAAA	-0.105
CCTGTAAA	-0.249
ATCTTTGG	-0.0304
GATCCTAA	-0.084
CCAGAGGG	-0.236
CTCAACAA	0.197
ATTCGAGG	-0.188
GGCAGAAC	0.0879
CTTGGTAA	0.00988
CGGTTGGC	0.00099
GAATCGTC	-0.00697
ATATTACA	0.209

Sequence	PBM E-score
AATATAAA	0.249
GACATCCC	0.115
AGTCTAGC	-0.149
GCGCTTGA	0.155
AAACCTGA	0.135
ACTGAAGG	-0.0522
ACGCACGC	0.0945
CGTAGCCA	-0.26
CAGTGCAG	-0.0567
CTAGGTGA	-0.0642
AACCATGG	-0.0244
AGCCACGG	-0.265
AGATCGTA	-0.185
ATGGTAAT	0.131
CGTACCAG	-0.133
AGCCGTCA	-0.0319
TTGGACAA	0.0284
ATGTACAT	0.205
ACGAACGT	0.0198
CATAGACG	-0.0191
GATACACC	0.143
AGGCCGGA	-0.198
GAAGTCTC	-0.202
CGGAAACA	0.0404
CGAGGGCC	-0.113

Sequence	PBM E-score
AAAGGAGG	-0.267
CAATAATC	0.233
ATGATCAT	0.0197
ATGGGGTC	0.0204
TGAGGTAA	0.208
CGTAAACC	0.0296
TAGACCTA	-0.164
CGTCAAGA	-0.192
GCGCGAGA	0.0814
CTTCTTTC	-0.0606
CTCGGATA	0.0423
GCTTAAGC	-0.0648
CCTCTCGC	-0.107
ATCGCAAT	0.175
TAATATTA	0.368
CCACATAA	0.184
CGGCGCAA	0.0352
ACGTCACT	0.00589
ATGCCCGA	-0.0291
AGCATAGA	-0.0638
CTCACTTC	-0.215
GATTTGGC	0.0542
CCCATTTA	0.0423
CGACGATC	0.112
CACAAGCC	-0.211

Sequence	PBM E-score
AACAGTGT	0.0352
CGCGACAA	0.217
AGCCACAT	0.0988
ACTGTAAT	0.199
ACGCCGTG	-0.00873
GTACAGGA	-0.0557
ATTCTCAC	0.144
CTAGAGCA	-0.0904
ATCTACTC	0.0361
GCTATGCA	-0.16
ATCGGAGG	-0.216
ACATGCGG	-0.0675
AGTGGAGG	-0.0708
AGAGACGC	-0.00275
CGGTTGAA	0.112
AAGAGCCG	-0.187
GGGCACGA	-0.144
CGGTCCAC	-0.344
GCCCCGGC	-0.277
AGCTACTA	0.0811
GACTTATC	0.0249
CACTTGAC	-0.0926
TAGAATGA	0.181
ACCAGTCC	-0.243
ACTTTTTG	0.0703

Sequence	PBM E-score
GTACTACA	0.0748
GAGGAATA	0.128
ATCCCGAG	0.106
ATTAGGCC	-0.0142
CATGTTAA	0.178
GCCGCGAC	-0.086
AATCATCG	-0.0169
GGGCGACA	-0.219
CGAAATTA	0.133
GAACATGA	0.0568
CCGCTTAC	0.334
ACCTGTAG	-0.0944
CATCCCGG	-0.0216
ATGTGCCG	-0.26
GTGGCAGA	-0.27
ATAAGAGG	0.0334
ACAAGAAG	0.196
ATCGATTG	0.192
AACGCCAG	0.00039
GCAAGGGC	-0.235
CTTATGCC	0.0394
CACGCGCG	-0.119
CCGGCACC	0.0257
AACCCTGA	0.131
TACAAACA	0.199

Quoted at random: five entries already listed, in no set order.
Sequence	PBM E-score
GAGGAATA	0.128
ATCGATTG	0.192
CCGGCACC	0.0257
ACCTGTAG	-0.0944
ATCCCGAG	0.106

Continued:

Sequence	PBM E-score
TTGCCAAA	-0.0109
CCCTCGCC	-0.0603
CATGCCTA	-0.126
GAGCCACA	0.0129
ATAGATTG	0.224
CGCCAAAG	-0.0824
AAACTCAC	0.0125
ACGACTGC	-0.141
CTGTGCTA	-0.00732
CTATCGCA	0.0826
GCCTTGTA	-0.115
ATGTGACA	0.0297
CGTAGGTA	-0.0204
CCCAATCA	0.144
CAAGTGCG	0.0366
AGGCCGGG	-0.293
AGATCTCC	-0.119
CGCAGAAG	0.082
ATACCGGA	0.0611
GGGTCGAA	-0.178
AGAACTAG	-0.117
TCGCGCGA	0.143
TAACGTTA	0.117
ATTGATCC	0.00708
AGATCCAA	-0.0116

Sequence	PBM E-score
CGAATACC	0.00898
ACAGACAG	0.195
ACCAGTGG	-0.0886
ACTGTCGA	-0.0188
GACGTCGA	0.0737
GGCCTAAA	-0.157
ATCCTTTC	-0.0501
CCGATCTA	-0.00311
ACAGTGGT	-0.0575
GGCGGGGA	0.171
CGAAACGC	-0.139
AGTAGCGG	0.125
GAATGCCA	-0.0651
ACACGCGT	0.0639
GCGTCAAA	0.00909
CGGTTACC	-0.127
AGTTGCTC	-0.0649
GCAACGCC	-0.122
ATATTAAG	0.122
AACGGCCA	-0.0837
CACTGGTC	-0.239
AAAACTTT	-0.041
AAATGACC	-0.00918
AGCTGGGA	-0.182
CACAGCCA	-0.0907

Sequence	PBM E-score
AGGCCGTC	-0.171
CGCCCAGC	0.0549
GAGTACCC	-0.0959
GCGTAGGA	-0.0406
CTGAACAC	0.167
AGCCATCC	-0.198
AGGTATAG	-0.0316
CACGACCA	-0.0834
CTACCTGC	-0.0488
ATCCGAGA	0.139
GTTAAAAA	-0.0143
ATCAATTC	0.044
CCCGCTTC	-0.17
CCAGCGAG	-0.0473
ACCAGCCT	-0.138
GCTTGTCC	-0.0652
CTTGGAAA	0.0193
AGGAGGAT	-0.182
GGGGGTGA	-0.387
AACCCACT	0.223
CACCGGGC	-0.321
AAGCCTAC	-0.168
ATTCCGTC	0.226
GTGTCCGA	-0.0777
AAGACCTT	-0.0603

Sequence	PBM E-score
TGTCCAAA	-0.0285
GTTGCGCA	-0.0379
CTTAGTGC	0.0286
GGGGACAC	-0.319
CCTTGGAC	-0.239
AGCAAGCG	-0.00554
GGCAGCCC	-0.179
CCATGTCA	-0.0999
GAAGGCAC	-0.0161
CCTGAACC	-0.0369
GTATACAC	-0.0283
AGCCGGAG	0.0621
AGGATCGA	-0.0937
ACAGGCAT	-0.0864
ACAAGCCC	-0.175
CCGGACCA	-0.219
AAGTATAT	0.111
ACTTGCGA	0.0628
ATGGCGTC	-0.12
CCATGTCG	0.0349
AGCTTCCG	-0.0682
CGAATTAA	0.0709
AAACGTGC	-0.119
CCCATAAC	0.0222
AGTTTATA	0.198

Sequence	PBM E-score
ATCAGTAG	0.0819
ATCCGACC	-0.186
ACCCCATC	-0.00878
ACAGTTGA	0.0443
CATGGACC	-0.106
ACTGCGCA	0.12
AATTACTG	0.167
AGGTAAAG	0.223
CGCTAACA	0.0565
ATATTTTA	0.201
TCTTGCAA	0.0905
CGAGTATA	0.206
ACATATGC	-0.175
CCCAGGGA	-0.362
CGAAATCC	0.19
TGGAGTAA	0.212
ATCCTGAC	0.107
AACAGCCT	-0.102
AGACCGAC	-0.00815
GCCACCGA	-0.15
AGCACTGA	0.00244
ACGTTATC	0.179
CGATAAGA	0.0385
CAACGTAA	0.204
ATAATTGC	0.0846

Sequence	PBM E-score
CGTCTGAG	-0.0558
GGTGGCAA	-0.0788
AGAGTTGG	0.0138
CAAGGTAC	-0.168
CATGTCTC	0.00412
CGTTCATC	0.111
ATACGTAC	-0.0222
AAGAAGTG	0.015
ATTACAGA	0.0804
CCAAATTC	-0.115
AGGGGACA	-0.136
ATTGTAGG	0.243
CCCTGGAG	-0.292
CTATATTA	0.325
CCCATAGC	-0.195
ATGACCCA	0.181
CCTACCTC	-0.139
GTCGGGAA	-0.0504
CCCCCGTA	-0.414
CGGGCAAG	-0.0454
CTACTGAA	-0.018
TACTTCAA	0.175
CCATATTA	0.169
TCCATGGA	0.158
GAGATAGA	0.0135

Sequence	PBM E-score
GGCCTCTA	-0.243
TAGTGTAA	0.134
ATCAAGTG	0.17
TATGCCCA	-0.0532
AAATGCAC	0.0645
AGGCATGC	-0.0863
CCCATGTA	0.00527
CGCGAGAC	-0.122
ACCTGCTG	0.14
AAGGAAGA	-0.136
AAACCCGA	0.185
AGGAGTTC	-0.0983
AACTTCAG	-0.0729
GGTTGAAA	-0.00909
AAGTGTAC	-0.0708
CGCAAACC	-0.00168
GTGATTGA	0.148
CCTCTAAG	-0.236
CTGGCCTC	-0.206
GGGCGTAA	-0.0611
ACTCGACT	-0.043
GACTTCTA	-0.233
AGGCAGAC	-0.247
CCTGAACA	-0.149
GAGCCCAC	-0.119

Sequence	PBM E-score
ACGGTGGA	-0.285
AGTGAAAT	0.008
CCTAAGTC	-0.135
CGGGGGAC	-0.3
AATCTCCA	-0.105
CAAAGTAG	-0.0133
ACTATAGG	-0.0568
AGCTTATA	0.191
ACTTCACC	-0.00883
CCCTGAGC	-0.00649
ACCATCAG	-0.113
CATTGGAA	0.0547
GAAACTAA	0.0253
GCTATGAA	0.0794
AACACAAT	0.14
GTCCAGTA	-0.0759
ATTGTACG	-0.0541
CTGCCCCA	0.0616
ATCGGGTG	0.138
ATACACGC	0.0469
AAGGTATC	-0.0586
CTATGGTC	-0.023
CTGGCGTA	-0.295
AATCCGCA	0.139
AATGTGCT	0.134

Sequence	PBM E-score
TCCGGTCA	-0.0497
ACGCTTTC	-0.0241
CTGGCATC	-0.153
AGGGCCTA	-0.19
CAAACAAA	0.12
AAGGGAGA	-0.224
TGGCTACA	0.0221
CACCTTGC	-0.0615
GCTGCATA	0.0524
CTCATCAC	-0.0246
GATCATGA	0.159
ACCCCGAT	0.155
AGCTTTCA	0.0229
AATGGCCA	-0.0811
AGCGTCGA	0.181
CAAACAGC	0.12
GGTTGGAC	-0.0946
CGACGGTC	-0.28
AAGTGCTA	0.0335

A second format for part of the listing above:
Sequence | PBM E-score
CTCACTTC | -0.215
ATACGTAC | -0.0222
TACTTCAA | 0.175
AGGGCCTA | -0.19

An excerpt taken from the entries so far, for reference:
Sequence	PBM E-score
CTATATTA	0.325
CCCATAGC	-0.195
ATGACCCA	0.181
CCTACCTC	-0.139
